Test results from article doi:10.1101/324590 (bioRxiv, 2018).
Where two headings read alike, the source gives them in different places. Results are given in words; binding and its absence hold for the method and conditions named. Some binding calls cover weakened binding; strength is not graded here.

Protein sequences, listed by entry. Tags and fused reporters are not part of them. Residues count along the entry.
UniProt Q9Y572, residues 387-518: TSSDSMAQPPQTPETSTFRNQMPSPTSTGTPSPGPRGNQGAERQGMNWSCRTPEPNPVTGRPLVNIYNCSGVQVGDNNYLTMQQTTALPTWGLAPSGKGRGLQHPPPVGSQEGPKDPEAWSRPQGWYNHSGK

Assays:
Assay in all cases: SDS agarose gel electrophoresis
[1] = molecular target: mCHERRY-M45(1-277WT) (murine cytomegalovirus) (UniProt Q06A28)
[2] = molecular target: YPet-RIPK1(497-583) (human) (UniProt Q13546)
[3] = molecular target: YPet-RIPK3(387-518) (human) (UniProt Q9Y572)
[4] = molecular target: YPet-RIPK3(387-518) (human) (UniProt Q9Y572); remark: listed apart in the source

Molecule | binding [1] | binding [2] | binding [3] | binding [4]
mCHERRY-M45(1-277WT) (from UniProt Q06A28 1-277) (domain or fragment) | binds | binds | binds | 
mCHERRY-M45(1-90WT) (domain or fragment, murine cytomegalovirus, UniProt Q06A28 1-90, looked up) MDRQPKVYSDPDNGFFFLDVPMPDDGQGGQQTATTAAGGAFGVGGGHSVPYVRIMNGVSGIQIGNHNAMSIASCWSPSYTDRRRRSYPKT |  |  | binds | no binding (condition: with 2% SDS)
YPet-RIPK1(497-583) (domain or fragment, human, UniProt Q13546 497-583, looked up) MPSLHNIPVPETNYLGNTPTMPFSSLPPTDESIKYTIYNSTGIQIGAYNYMEIGGTSSSLLDSTNTNFKEEPAAKYQAIFDNTTSLT |  | binds |  | 
